# From patent publication EP2680005A1, “Lipid analysis” (Rheinische Friedrich-Wilhelms-Universität Bonn, priority 2012, dated 2014)
# Experiment: Sensitivity and linearity of click detection (TLC, fluorescence imaging)
substance,measurement,setting,value
Alkyne-oleoyl-cholesterol [cholesterol ester of alkyne-oleate],slope of response curve in a double logarithmic plot,concentration range 13.5 nM to 40 µM,0.91
same,lower detection level (concentration),reaction volume 30 µl,13.5 nM
same,lower detection level (total substance),reaction volume 30 µl,0.4 pmol
